These are yes or no findings as the source states them, for the method shown. A result given as binding can be weak or reduced; the word gives no strength.
Target: T1, human Bcl10 (human) (UniProt O95999)
T1 sequence: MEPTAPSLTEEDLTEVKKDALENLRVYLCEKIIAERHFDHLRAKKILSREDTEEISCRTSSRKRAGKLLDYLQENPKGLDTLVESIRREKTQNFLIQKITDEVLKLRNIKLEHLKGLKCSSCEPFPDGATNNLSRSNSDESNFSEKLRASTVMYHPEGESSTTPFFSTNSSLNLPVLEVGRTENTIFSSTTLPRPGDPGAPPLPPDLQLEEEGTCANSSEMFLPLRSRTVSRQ
Test: two-hybrid; Matchmaker Gold Yeast Two-Hybrid System, Y2H Gold strain; bait and prey plasmids co-transformed; growth on SD/-Leu/-Trp/-His/-Ade/+X-α-gal, 30°C, 3–7 days

| binding | Substance |
| --- | --- |
| no binding | Nematostella vectensis type 1 paracaspase paralog "A" (NvPCASP-t1A) |
| binds | Nematostella vectensis type 1 paracaspase paralog "B" (NvPCASP-t1B) |
